Experimental data published in patent US20200268804A1, “METHODS AND COMPOSITIONS TO MAINTAIN STEM CELL QUIESCENCE” (The Board of Trustees of the Leland Stanford Junior …, priority 2016, published 2020).
At least one structure is not confirmed: it was looked up by name or label, or the drawing left a doubt.

Tested on: quiescent MuSCs
Test: Q-RT-PCR screening of candidate molecules for promotion of MuSC quiescence
Assay type: cell-based, mouse
Details: 500 quiescent MuSCs cultured 2.5 days with the molecule; gene expression signature
Text: FIG. 8. Screening of molecules titrated at different concentrations. Heat map analysis of gene expression profiles obtained from MuSCs cultured in different concentrations of candidate molecules. In 96 well plates, 500 MuSCs were directly isolated by FACS and cultured in the presence of the candidate molecules titrated at different concentrations. After 2.5 days, cells were collected for combinatorial Q-RT-PCR to screen for the conditions that result mostly closely resemble freshly isolated MuSCs based on the gene expression profiles. A heat map for absolute deviations from expression levels of freshly isolated quiescent MuSCs (QSC) is shown. On the X axis, the molecules tested and the different dilutions employed from the working concentrations are indicated as in FIG. 16. On the Y axis the names of the genes that were tested are listed. The gene names were organized in general functional groups. Each functional group is based on the main function and role in MuSCs.
Knowing that quiescent MuSCs have a unique transcriptional signature, we employed combinatorial QRT-PCR to screen for molecules that, when added to the medium, would promote MuSC quiescence. […]
Single Cell Q-RT-PCR. […] Biomark data was analyzed using Q-RT-PCR Analysis software (Fluidigm). […] For each amplicon, a limit of detection (LOD) was determined by running 10-fold serial dilutions of embryonic cDNA in 6 replicates. […]

Q: `COCCNCc1ccc(-c2cc3nccc(Oc4ccc(NC(=S)NC(=O)Cc5ccc(F)cc5)cc4F)c3s2)nc1` [MGCD-265] was tested. Which quiescence-promoting activity did it give?
A: Its quiescence-promoting activity is “novel quiescence-promoting activity”.
